{"source": "PubChem BioAssay AID1508588 (Peter MacCallum Cancer Centre, 2020)", "purpose": "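Genome-wide search for knock-downs that heighten vemurafenib action in melanoma cells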 (primary screen)", "cell system": "human WM266.4 melanoma cells (BRAF V600 mutant)", "reagent": "siRNA pool against human genes, 40 nM", "timing": "96 h from transfection to read-out", "challenge": "vemurafenib 300 nM (about IC25), added 48 h after transfection, for 48 h; comparison arm got DMSO vehicle only", "measured": "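Cell gain (DAPI nuclei at end minus before drug, mean of two replicates) and medium lactate by absorbance per cell, both as ratio to non-targeting siRNA, also grouped into fold-change classes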", "direction": "cell gain with vemurafenib: higher = more cell gain than with non-targeting siRNA; lactate per cell with vemurafenib: higher = more lactate made per cell", "call rule": "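a knock-down counts as enhancing when its fold-change classes with vehicle and with vemurafenib, taken together, show a stronger drug effect on cell gain or lactate per cell; exact class pairs not stated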", "calls": "active = enhances vemurafenib effect; inactive = no enhancement seen", "note": "The deposit covers about 18,000 reagents; below is a part drawn at random. 790 of them (4.4%) were called active. 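Calls rest on a combination of fold-change classes in drug and vehicle arms, not all shown here.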"}
{"gene knocked down":"MRPS17","cell gain with vemurafenib":0.76,"lactate per cell with vemurafenib":1.15,"call":"inactive"}
{"gene knocked down":"TIMP2","cell gain with vemurafenib":0.55,"lactate per cell with vemurafenib":1.92,"call":"inactive"}
{"gene knocked down":"SUMF2","cell gain with vemurafenib":0.42,"lactate per cell with vemurafenib":1.67,"call":"inactive"}
{"gene knocked down":"RPGRIP1L","cell gain with vemurafenib":0.49,"lactate per cell with vemurafenib":0.98,"call":"inactive"}
{"gene knocked down":"KCNA6","cell gain with vemurafenib":0.03,"lactate per cell with vemurafenib":1.31,"call":"inactive"}
{"gene knocked down":"CERS3","cell gain with vemurafenib":0.35,"lactate per cell with vemurafenib":0.54,"call":"inactive"}
{"gene knocked down":"ADK","cell gain with vemurafenib":0.64,"lactate per cell with vemurafenib":1.52,"call":"inactive"}
{"gene knocked down":"ATP1B2","cell gain with vemurafenib":0.93,"lactate per cell with vemurafenib":0.82,"call":"inactive"}
{"gene knocked down":"EXD3","cell gain with vemurafenib":0.4,"lactate per cell with vemurafenib":1.83,"call":"inactive"}
{"gene knocked down":"MAOA","cell gain with vemurafenib":0.26,"lactate per cell with vemurafenib":0.89,"call":"inactive"}
{"gene knocked down":"TRAF3IP2","cell gain with vemurafenib":0.11,"lactate per cell with vemurafenib":2.4,"call":"inactive"}
{"gene knocked down":"SSX4","cell gain with vemurafenib":0.83,"lactate per cell with vemurafenib":0.59,"call":"inactive"}
{"gene knocked down":"NGF","cell gain with vemurafenib":0.91,"lactate per cell with vemurafenib":0.3,"call":"inactive"}
{"gene knocked down":"FANCE","cell gain with vemurafenib":0.5,"lactate per cell with vemurafenib":1.84,"call":"inactive"}
{"gene knocked down":"SCGB1D1","cell gain with vemurafenib":0.11,"lactate per cell with vemurafenib":1.44,"call":"inactive"}
{"gene knocked down":"POFUT4","cell gain with vemurafenib":-0.17,"lactate per cell with vemurafenib":0.72,"call":"inactive"}
{"gene knocked down":"FCHO2","cell gain with vemurafenib":0.59,"lactate per cell with vemurafenib":1.6,"call":"inactive"}
{"gene knocked down":"LIPE","cell gain with vemurafenib":0.34,"lactate per cell with vemurafenib":0.97,"call":"inactive"}
{"gene knocked down":"ENTPD6","cell gain with vemurafenib":0.34,"lactate per cell with vemurafenib":0.72,"call":"inactive"}
{"gene knocked down":"TMEM183BP","cell gain with vemurafenib":0.67,"lactate per cell with vemurafenib":0.3,"call":"inactive"}
{"gene knocked down":"AFF4","cell gain with vemurafenib":0.48,"lactate per cell with vemurafenib":0.76,"call":"inactive"}
{"gene knocked down":"NELFCD","cell gain with vemurafenib":0.39,"lactate per cell with vemurafenib":0.62,"call":"inactive"}
{"gene knocked down":"IFNK","cell gain with vemurafenib":0.01,"lactate per cell with vemurafenib":0.96,"call":"inactive"}
{"gene knocked down":"PLEKHA5","cell gain with vemurafenib":0.08,"lactate per cell with vemurafenib":1.33,"call":"inactive"}
{"gene knocked down":"RTBDN","cell gain with vemurafenib":0.32,"lactate per cell with vemurafenib":0.65,"call":"inactive"}
{"gene knocked down":"GGT1","cell gain with vemurafenib":0.47,"lactate per cell with vemurafenib":1.6,"call":"inactive"}
{"gene knocked down":"SIGLEC10","cell gain with vemurafenib":0.85,"lactate per cell with vemurafenib":0.62,"call":"inactive"}
{"gene knocked down":"ATP2B1","cell gain with vemurafenib":0.6,"lactate per cell with vemurafenib":0.95,"call":"inactive"}
{"gene knocked down":"TMEM139","cell gain with vemurafenib":0.25,"lactate per cell with vemurafenib":1.23,"call":"inactive"}

An excerpt from above, showing only “cell gain with vemurafenib”.
ATP2B1 = 0.6
TMEM139 = 0.25

The listing continues.
{"gene knocked down":"PYCARD","cell gain with vemurafenib":0.54,"lactate per cell with vemurafenib":0.74,"call":"inactive"}
{"gene knocked down":"RELL1","cell gain with vemurafenib":0.96,"lactate per cell with vemurafenib":1.19,"call":"inactive"}
{"gene knocked down":"RNF17","cell gain with vemurafenib":0.69,"lactate per cell with vemurafenib":1.03,"call":"inactive"}
{"gene knocked down":"MCU","cell gain with vemurafenib":-0.11,"lactate per cell with vemurafenib":2.13,"call":"inactive"}
{"gene knocked down":"KCNB1","cell gain with vemurafenib":0.57,"lactate per cell with vemurafenib":0.2,"call":"inactive"}
{"gene knocked down":"HOXB9","cell gain with vemurafenib":0.64,"lactate per cell with vemurafenib":1.78,"call":"inactive"}
{"gene knocked down":"NSRP1","cell gain with vemurafenib":0.12,"lactate per cell with vemurafenib":0.98,"call":"active"}
{"gene knocked down":"HNRNPD","cell gain with vemurafenib":0.39,"lactate per cell with vemurafenib":0.96,"call":"inactive"}
{"gene knocked down":"CYP3A7","cell gain with vemurafenib":0.7,"lactate per cell with vemurafenib":1.41,"call":"inactive"}
{"gene knocked down":"FAM76B","cell gain with vemurafenib":0.85,"lactate per cell with vemurafenib":1,"call":"inactive"}
{"gene knocked down":"FGD6","cell gain with vemurafenib":0.62,"lactate per cell with vemurafenib":1.04,"call":"inactive"}
{"gene knocked down":"ITGA3","cell gain with vemurafenib":0.35,"lactate per cell with vemurafenib":1.27,"call":"inactive"}
{"gene knocked down":"JAM3","cell gain with vemurafenib":0.82,"lactate per cell with vemurafenib":0.95,"call":"inactive"}
{"gene knocked down":"TEX264","cell gain with vemurafenib":1.09,"lactate per cell with vemurafenib":0.75,"call":"inactive"}
{"gene knocked down":"FOXF2","cell gain with vemurafenib":0.77,"lactate per cell with vemurafenib":1.52,"call":"inactive"}
{"gene knocked down":"NFIA","cell gain with vemurafenib":0.78,"lactate per cell with vemurafenib":0.71,"call":"inactive"}
{"gene knocked down":"SLC50A1","cell gain with vemurafenib":0.57,"lactate per cell with vemurafenib":0.9,"call":"inactive"}
{"gene knocked down":"CDC42EP4","cell gain with vemurafenib":0.09,"lactate per cell with vemurafenib":2.95,"call":"inactive"}
{"gene knocked down":"ZNF705A","cell gain with vemurafenib":0.66,"lactate per cell with vemurafenib":0.9,"call":"inactive"}
{"gene knocked down":"ABHD15","cell gain with vemurafenib":0.1,"lactate per cell with vemurafenib":0.04,"call":"active"}
{"gene knocked down":"ABI3BP","cell gain with vemurafenib":0.93,"lactate per cell with vemurafenib":0.58,"call":"inactive"}
{"gene knocked down":"WFDC13","cell gain with vemurafenib":-0.05,"lactate per cell with vemurafenib":-0.02,"call":"active"}
{"gene knocked down":"CFHR5","cell gain with vemurafenib":-0.04,"lactate per cell with vemurafenib":1.31,"call":"inactive"}
